Measurements reported in PubChem BioAssay AID1053208 (Peter MacCallum Cancer Centre, 2014).

Assay: 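Genes whose silencing cuts survival of bone tumour cells only with doxorubicin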 (primary screen)
Cell system: mouse osteosarcoma cells, early-passage culture from an engineered mouse model of fibroblastic bone tumour
Knock-down reagent: siRNA pool against mouse genes, 40 nM
Timing: about 120 h (48 h before drug, then 72 h with drug)
Challenge: doxorubicin 100 nM for 72 h, roughly 30-40% inhibitory dose
Measured: 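Luminescent ATP signal taken as viability with or without 100 nM doxorubicin for 72 h; mean of two wells set against non-targeting siRNA and turned into robust z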
Scale: viability z-score with doxorubicin: higher = more viable cells under doxorubicin; viability z-score without drug: higher = more viable cells with knock-down alone
Active means: 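Called active if knock-down leaves viability unchanged without drug (z within -2 to 2) but lowers it with doxorubicin (z at or under -2)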
Here is an unselected part of about 17,000 reagents. Of all reagents, 788 (4.7%) got an active call. 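Calls rest on z-score classes alone; an extra cut-off of viability at most 70% of control was not applied to them.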 Some reagents were tested in more than one well and are listed for each. Further read-outs or replicates are left out here. No sequences are given here.

For Or8b56, the values are combined z-score class low cell count with and without drug; viability z-score with doxorubicin -2.25; viability z-score without drug -2.02; inactive.
Depletion of Zfp12 gave: combined z-score class no change with or without drug; viability z-score with doxorubicin 1.35; viability z-score without drug 0.51; inactive.
Depletion of Stk32a resulted in: combined z-score class no change with or without drug; viability z-score with doxorubicin -0.34; viability z-score without drug -0.51; inactive.
Depletion of Sec11a gave: combined z-score class no change with or without drug; viability z-score with doxorubicin -1.35; viability z-score without drug 0.17; inactive.
Silencing of 1700052K11Rik gave: combined z-score class high cell count without drug only; viability z-score with doxorubicin 0; viability z-score without drug 3.2; inactive.
Silencing of Fam24a gave: combined z-score class no change with or without drug; viability z-score with doxorubicin -0.45; viability z-score without drug 1.85; inactive.
Pola2 scored combined z-score class no change with or without drug; viability z-score with doxorubicin 0.45; viability z-score without drug -0.84; inactive.
Knock-down of Usp17lb resulted in: combined z-score class no change with or without drug; viability z-score with doxorubicin -0.79; viability z-score without drug 1.52; inactive.
For Dnah5, the entry reads combined z-score class no change with or without drug; viability z-score with doxorubicin 0.22; viability z-score without drug -0.51; inactive.
For Bcar3, the values are combined z-score class no change with or without drug; viability z-score with doxorubicin 1.01; viability z-score without drug -0.17; inactive.
Knock-down of Mdm4 gave: combined z-score class no change with or without drug; viability z-score with doxorubicin 1.8; viability z-score without drug 1.18; inactive.
With knock-down of Klhl6 the results were combined z-score class no change with or without drug; viability z-score with doxorubicin -0.45; viability z-score without drug 0.17; inactive.
Cts6 gave combined z-score class no change with or without drug; viability z-score with doxorubicin -0.22; viability z-score without drug -0.51; inactive.
Knock-down of Nckap5 came out at: combined z-score class no change with or without drug; viability z-score with doxorubicin 0.9; viability z-score without drug 0.67; inactive.
For Dynlt3, the entry reads combined z-score class no change with or without drug; viability z-score with doxorubicin -1.8; viability z-score without drug -0.84; inactive.
Knock-down of Cryga came out at: combined z-score class no change with or without drug; viability z-score with doxorubicin -0.22; viability z-score without drug 0.51; inactive.
Bpifc scored combined z-score class no change with or without drug; viability z-score with doxorubicin 0; viability z-score without drug 0; inactive.
For Sash1, the values are combined z-score class no change with or without drug; viability z-score with doxorubicin -0.45; viability z-score without drug 0.51; inactive.
Wnt2b scored combined z-score class no change with or without drug; viability z-score with doxorubicin 1.01; viability z-score without drug 1.35; inactive.
With knock-down of Dtx2, the record shows combined z-score class no change with or without drug; viability z-score with doxorubicin -0.45; viability z-score without drug 0.51; inactive.
Against Or4c106 the deposit lists combined z-score class no change with or without drug; viability z-score with doxorubicin -0.45; viability z-score without drug 0; inactive.
With knock-down of Tmem33, the screen gave combined z-score class no change with or without drug; viability z-score with doxorubicin 1.91; viability z-score without drug 1.18; inactive.
For Nanp the deposit lists combined z-score class no change with or without drug; viability z-score with doxorubicin 0.22; viability z-score without drug -1.01; inactive.
With knock-down of Fbxo48, the record shows combined z-score class no change with or without drug; viability z-score with doxorubicin 1.35; viability z-score without drug 0.84; inactive.
Against Susd2, the values are combined z-score class no change with or without drug; viability z-score with doxorubicin 0.22; viability z-score without drug 0.34; inactive.
For Or6aa1, the values are combined z-score class no change with or without drug; viability z-score with doxorubicin -0.9; viability z-score without drug -1.01; inactive.
Cfap161 gave combined z-score class no change with or without drug; viability z-score with doxorubicin 1.01; viability z-score without drug 1.52; inactive.
With knock-down of Cenpt, the record shows combined z-score class no change with or without drug; viability z-score with doxorubicin 1.12; viability z-score without drug 0.67; inactive.
Depletion of Oosp1 came out at: combined z-score class no change with or without drug; viability z-score with doxorubicin 0.34; viability z-score without drug 0.84; inactive.
Against Tmprss4 the deposit lists combined z-score class no change with or without drug; viability z-score with doxorubicin 0.45; viability z-score without drug 0.84; inactive.
For Calca the deposit lists combined z-score class no change with or without drug; viability z-score with doxorubicin -0.22; viability z-score without drug -0.17; inactive.
For Gna14, the entry reads combined z-score class no change with or without drug; viability z-score with doxorubicin -1.8; viability z-score without drug 1.69; inactive.
For Ccl5 the deposit lists combined z-score class no change with or without drug; viability z-score with doxorubicin -0.67; viability z-score without drug 0.34; inactive.
For Npr1, the values are combined z-score class no change with or without drug; viability z-score with doxorubicin 1.35; viability z-score without drug 0; inactive.
With knock-down of Npr1, the screen gave combined z-score class high cell count without drug only; viability z-score with doxorubicin 0.45; viability z-score without drug 2.36; inactive.
With knock-down of Nkx3-2 the results were combined z-score class no change with or without drug; viability z-score with doxorubicin 1.57; viability z-score without drug 0.67; inactive.

Sorted by “viability z-score without drug” (lowest first): 3 of the entries above.
Bpifc → combined z-score class: no change with or without drug; viability z-score with doxorubicin: 0; viability z-score without drug: 0; Outcome: inactive
Cryga → combined z-score class: no change with or without drug; viability z-score with doxorubicin: -0.22; viability z-score without drug: 0.51; Outcome: inactive
Sash1 → combined z-score class: no change with or without drug; viability z-score with doxorubicin: -0.45; viability z-score without drug: 0.51; Outcome: inactive
